# Source: PubChem BioAssay AID485353 (National Center for Advancing Translational Sciences (NCATS), 2010)
# Screen size: about 330,000 compounds; about 610 (0.18%) were called active. The shares of active, inactive and inconclusive entries below differ from those in the screen. Calls follow the shape of the full dose curve. Potencies of inconclusive entries are doubtful fits and often do not repeat.
# Experiment: qHTS of Yeast-based Assay for SARS-CoV PLP; also: nearly all actives have a fitted effect of over 55% in size; as to activity, positive = growth rescue: 0% is about no effect
# Conditions: S. cerevisiae expressing SARS-CoV PLpro; Potency: growth rescue; activity, positive = growth rescue: at 32.9 µM (top of the series)
# Potency is read from the fitted curve at half-maximal effect.
SMILES,Potency,"activity, positive = growth rescue"
O=C(NC1CC2CCCC(C1)N2S(=O)(=O)c1ccccc1)c1ccco1 (stereo not drawn),"inconclusive: 14.1 µM [activator, single point]",–
COc1ccc(Cl)cc1NC(=O)c1noc(C)c1[N+](=O)[O-],"inconclusive: 3.16 µM [activator, single point]",–
CCC(C)N(C(=O)COC(=O)c1cc([N+](=O)[O-])ccc1N1CCOCC1)C1CCS(=O)(=O)C1 (stereo not drawn),"inconclusive: 4.47 µM [activator, single point]",–
C=C1CC2C=C(NC(C)=O)CC(C1)C2 (stereo not drawn),"inconclusive: 14.1 µM [activator, single point]",–
COc1ccc(-c2cc(C(=O)Nc3cc(OC)c(OC)c(OC)c3)no2)cc1OC,"inconclusive: 4.47 µM [activator, single point]",–
O=C(Nc1nnc(-c2ccccc2)o1)c1cc(Cl)sc1Cl,"inconclusive: 2.82 µM [activator, partial curve, poor fit]",–
Cc1ccc(-c2nn(-c3ccccc3)cc2C(=O)N2CCOCC2)cc1,–,inactive: 1.39%
S=C(Nc1ccc(Cl)c(Cl)c1)NC1CCCCC1,–,inactive: -32.7%
O=C(Nc1ccccc1)c1ccc(NC(=O)c2cccs2)cc1,"inconclusive: 3.98 µM [activator, single point]",–
COc1ccc(N(CC(=O)Nc2nccs2)S(=O)(=O)c2c(C)nn(C)c2C)cc1,"inconclusive: 20 µM [activator, single point]",–
CCCCn1c(=O)c(CCC(=O)OCC(=O)Nc2ccc(F)c(Cl)c2)nc2ccccc21,–,inactive: -5.81%
CN(C)CCCN(C(=O)c1ccc(S(=O)(=O)N(C)Cc2ccccc2)cc1)c1nc2c(F)cccc2s1,"inconclusive: 20 µM [activator, single point]",–
CCn1c(SCc2nc3ccccc3s2)nnc1-c1cccs1,"inconclusive: 2.82 µM [activator, partial curve]",–
CN(Cc1ccccc1)c1nc2c(c(=O)[nH]c(=O)n2C)n1C,"inconclusive: 10 µM [activator, single point]",–
COc1ccc(S(=O)(=O)N2c3ccccc3NC(=O)CC2C)cc1 (stereo not drawn),"inconclusive: 11.2 µM [activator, single point]",–
COc1ccc(C)cc1S(=O)(=O)Nc1ccc(F)cc1,"inconclusive: 17.8 µM [activator, single point]",–
O=C1CCC(C(=O)N2CCC(O)(c3ccccc3)CC2)CN1CCc1ccccc1 (stereo not drawn),"inconclusive: 3.98 µM [activator, single point]",–
O=C(Cn1c(-c2ccccc2)noc1=O)Nc1ccc(S(=O)(=O)N2CCOCC2)cc1,"inconclusive: 0.631 µM [activator, full curve]",–

# Fetched one by one from the list above, two records:
SMILES,Potency,"activity, positive = growth rescue"
CN(Cc1ccccc1)c1nc2c(c(=O)[nH]c(=O)n2C)n1C,"inconclusive: 10 µM [activator, single point]",–
O=C(Nc1nnc(-c2ccccc2)o1)c1cc(Cl)sc1Cl,"inconclusive: 2.82 µM [activator, partial curve, poor fit]",–
